Drawing on article PMC6912806, this text covers binding for three substances.

No constants are given. Whether binding was seen depends on the method and setting. Binding seen in cells or lysates may run through a third protein. Binding can be weak; no strength is given.

Assay [1] concerns the target T1, mRFP-CAST1/ERC2 full-length (rat) (UniProt Q8K3M6).
T1 sequence: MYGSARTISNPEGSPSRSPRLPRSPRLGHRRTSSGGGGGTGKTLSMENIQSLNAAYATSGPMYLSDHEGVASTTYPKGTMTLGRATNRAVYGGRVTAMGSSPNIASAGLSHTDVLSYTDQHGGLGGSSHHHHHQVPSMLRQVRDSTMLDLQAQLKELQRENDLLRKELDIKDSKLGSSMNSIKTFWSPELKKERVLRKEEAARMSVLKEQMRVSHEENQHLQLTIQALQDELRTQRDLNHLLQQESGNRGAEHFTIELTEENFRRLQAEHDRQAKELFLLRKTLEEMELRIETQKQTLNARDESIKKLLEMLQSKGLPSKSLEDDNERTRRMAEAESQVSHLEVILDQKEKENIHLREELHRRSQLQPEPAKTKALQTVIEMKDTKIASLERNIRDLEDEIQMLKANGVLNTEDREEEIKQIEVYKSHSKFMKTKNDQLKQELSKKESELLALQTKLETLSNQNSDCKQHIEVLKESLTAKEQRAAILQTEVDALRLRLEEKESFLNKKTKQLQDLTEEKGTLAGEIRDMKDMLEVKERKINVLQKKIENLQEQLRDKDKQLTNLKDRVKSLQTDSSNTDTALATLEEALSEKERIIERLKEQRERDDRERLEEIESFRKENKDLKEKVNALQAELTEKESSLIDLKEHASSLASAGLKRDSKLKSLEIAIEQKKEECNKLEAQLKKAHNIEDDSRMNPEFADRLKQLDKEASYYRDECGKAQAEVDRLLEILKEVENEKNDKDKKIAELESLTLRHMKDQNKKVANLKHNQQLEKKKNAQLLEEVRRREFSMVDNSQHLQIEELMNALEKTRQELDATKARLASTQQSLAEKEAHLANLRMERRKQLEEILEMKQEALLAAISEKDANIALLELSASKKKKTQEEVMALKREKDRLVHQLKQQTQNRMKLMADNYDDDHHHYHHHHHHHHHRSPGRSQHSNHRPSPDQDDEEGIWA
The assay is described as follows: co-IP; HEK293T cells co-transfected with FUG-SRPK1, -2 or -3-W and FUmRFP-CAST1/ERC2-W; RIPA buffer; reciprocal immunoprecipitation with anti-GFP or anti-mCherry overnight at 4 °C, Protein A/G Plus Agarose; normal rabbit IgG as control.

For assay [2], the target named is T1, mRFP-CAST1/ERC2 full-length (rat). The assay is described as follows: co-IP; SH-SY5Y cells co-transfected with pEGFP-SRPK1, -2 or -3 and pmRFP-CAST1/ERC2; RIPA buffer; reciprocal immunoprecipitation with anti-GFP or anti-mCherry overnight at 4 °C, Protein A/G Plus Agarose; normal rabbit IgG as control.

For EGFP-SRPK1 (rat) (enzyme), the binding result in assay [1] and in assay [2] was “no binding” in each case.
Turning to EGFP-SRPK2 (rat) (enzyme), the binding result in assay [1] and in assay [2] was “binds” each time.
For EGFP-SRPK3 (rat) (enzyme), the binding entry in assay [1] and in assay [2] was “no binding” each time.
